The target of test [1] is T1, XA21 intracellular domain (668-1025aa) (rice (Oryza longistaminata)) (UniProt Q40640).
T1 sequence: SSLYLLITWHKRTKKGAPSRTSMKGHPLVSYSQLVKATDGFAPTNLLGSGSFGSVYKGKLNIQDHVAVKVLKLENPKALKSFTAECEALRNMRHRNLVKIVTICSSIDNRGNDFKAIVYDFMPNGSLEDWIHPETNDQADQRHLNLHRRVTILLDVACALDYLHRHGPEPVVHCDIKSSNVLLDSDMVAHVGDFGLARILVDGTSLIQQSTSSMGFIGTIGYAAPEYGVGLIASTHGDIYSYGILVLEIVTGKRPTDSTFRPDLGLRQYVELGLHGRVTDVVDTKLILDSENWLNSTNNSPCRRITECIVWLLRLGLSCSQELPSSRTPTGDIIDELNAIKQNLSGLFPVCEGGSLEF
Put plainly: two-hybrid.

The chains behind the UniProt entries cited, without tags or fusion partners. Where a name states a change or a piece, a line headed by the entry shows the natural chain unless it says otherwise. Residues count along the entry.
UniProt C0LGT6, residues 674-1031: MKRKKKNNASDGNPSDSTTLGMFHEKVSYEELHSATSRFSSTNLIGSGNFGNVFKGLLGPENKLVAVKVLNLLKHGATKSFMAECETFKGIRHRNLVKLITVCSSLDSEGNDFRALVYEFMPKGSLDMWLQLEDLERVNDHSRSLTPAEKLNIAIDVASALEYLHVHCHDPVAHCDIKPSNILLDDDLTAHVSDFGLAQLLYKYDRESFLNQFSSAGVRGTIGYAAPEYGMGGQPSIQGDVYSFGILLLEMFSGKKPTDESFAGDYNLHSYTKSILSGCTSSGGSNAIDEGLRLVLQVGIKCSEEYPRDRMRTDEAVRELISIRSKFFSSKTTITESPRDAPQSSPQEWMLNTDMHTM
UniProt Q84T94: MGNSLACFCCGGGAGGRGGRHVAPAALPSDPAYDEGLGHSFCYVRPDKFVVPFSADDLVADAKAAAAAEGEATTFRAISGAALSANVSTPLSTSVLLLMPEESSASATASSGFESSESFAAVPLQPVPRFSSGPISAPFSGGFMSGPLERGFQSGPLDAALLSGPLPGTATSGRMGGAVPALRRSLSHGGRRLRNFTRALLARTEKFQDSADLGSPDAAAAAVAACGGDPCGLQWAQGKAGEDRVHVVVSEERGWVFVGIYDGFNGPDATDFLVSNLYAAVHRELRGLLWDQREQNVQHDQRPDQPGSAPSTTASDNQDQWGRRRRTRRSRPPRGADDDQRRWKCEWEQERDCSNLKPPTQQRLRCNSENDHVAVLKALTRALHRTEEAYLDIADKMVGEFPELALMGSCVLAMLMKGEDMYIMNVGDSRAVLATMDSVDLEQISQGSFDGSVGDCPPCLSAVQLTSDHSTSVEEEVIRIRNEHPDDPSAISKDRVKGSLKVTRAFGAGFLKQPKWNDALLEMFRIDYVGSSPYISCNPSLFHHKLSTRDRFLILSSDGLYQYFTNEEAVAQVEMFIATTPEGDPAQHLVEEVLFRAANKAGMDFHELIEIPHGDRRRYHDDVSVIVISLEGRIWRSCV

Test [2] has as its target EFR intracellular domain (ID) (674-1032aa) (Arabidopsis) (UniProt C0LGT6). Put plainly: two-hybrid.

These are yes or no findings as the source states them, for the method shown. For some assays here: Binding calls can cover weak binding; strength is not graded here.

For the substance “XB15 full-length (FL) (1-639aa) (from UniProt Q84T94) (enzyme)”, the binding entry in test [1] was “binds”; in test [2] it was “no binding”.

(Values after article PMC4379099 (PLoS Pathogens, 2015).)
